Source: patent US20070166719A1 (NEW ENGLAND BIOLABS, published 2007)

Test system: CspCI (R-M-CspCI / S-CspCI heterodimer) (Citrobacter sp. 2144 (NEB#1398))
Assay: enzyme reaction in vitro
Details: NEBuffer 2, AdoMet, 37 C, purified recombinant protein, only the site is given

Row | Sequence | activity on this sequence (cleavage 11/13 CAA N5 GTGG 12/10) | activity on this sequence (cleavage 10/12 CAA N5 GTGG 13/11)
1 | AGTGCCACCTGACGTGCAACCTAGGTGGCACGTCTAAGAAACC (double strand) [pUC1CspC-4 CspCI site] | active | 
2 | AGTGCCACCTGACGTGCCACCCGGGTTGCACGTCTAAGAAACC (double strand) [pUC1CspC-1 CspCI site] |  | active
